From paper PMC10432269, “Diverse modes of H3K36me3-guided nucleosomal deacetylation by Rpd3S” (Nature, 2023) come the findings set out here.

Protein sequences, listed by entry. Tags and fused reporters are not part of them.
UniProt P22579: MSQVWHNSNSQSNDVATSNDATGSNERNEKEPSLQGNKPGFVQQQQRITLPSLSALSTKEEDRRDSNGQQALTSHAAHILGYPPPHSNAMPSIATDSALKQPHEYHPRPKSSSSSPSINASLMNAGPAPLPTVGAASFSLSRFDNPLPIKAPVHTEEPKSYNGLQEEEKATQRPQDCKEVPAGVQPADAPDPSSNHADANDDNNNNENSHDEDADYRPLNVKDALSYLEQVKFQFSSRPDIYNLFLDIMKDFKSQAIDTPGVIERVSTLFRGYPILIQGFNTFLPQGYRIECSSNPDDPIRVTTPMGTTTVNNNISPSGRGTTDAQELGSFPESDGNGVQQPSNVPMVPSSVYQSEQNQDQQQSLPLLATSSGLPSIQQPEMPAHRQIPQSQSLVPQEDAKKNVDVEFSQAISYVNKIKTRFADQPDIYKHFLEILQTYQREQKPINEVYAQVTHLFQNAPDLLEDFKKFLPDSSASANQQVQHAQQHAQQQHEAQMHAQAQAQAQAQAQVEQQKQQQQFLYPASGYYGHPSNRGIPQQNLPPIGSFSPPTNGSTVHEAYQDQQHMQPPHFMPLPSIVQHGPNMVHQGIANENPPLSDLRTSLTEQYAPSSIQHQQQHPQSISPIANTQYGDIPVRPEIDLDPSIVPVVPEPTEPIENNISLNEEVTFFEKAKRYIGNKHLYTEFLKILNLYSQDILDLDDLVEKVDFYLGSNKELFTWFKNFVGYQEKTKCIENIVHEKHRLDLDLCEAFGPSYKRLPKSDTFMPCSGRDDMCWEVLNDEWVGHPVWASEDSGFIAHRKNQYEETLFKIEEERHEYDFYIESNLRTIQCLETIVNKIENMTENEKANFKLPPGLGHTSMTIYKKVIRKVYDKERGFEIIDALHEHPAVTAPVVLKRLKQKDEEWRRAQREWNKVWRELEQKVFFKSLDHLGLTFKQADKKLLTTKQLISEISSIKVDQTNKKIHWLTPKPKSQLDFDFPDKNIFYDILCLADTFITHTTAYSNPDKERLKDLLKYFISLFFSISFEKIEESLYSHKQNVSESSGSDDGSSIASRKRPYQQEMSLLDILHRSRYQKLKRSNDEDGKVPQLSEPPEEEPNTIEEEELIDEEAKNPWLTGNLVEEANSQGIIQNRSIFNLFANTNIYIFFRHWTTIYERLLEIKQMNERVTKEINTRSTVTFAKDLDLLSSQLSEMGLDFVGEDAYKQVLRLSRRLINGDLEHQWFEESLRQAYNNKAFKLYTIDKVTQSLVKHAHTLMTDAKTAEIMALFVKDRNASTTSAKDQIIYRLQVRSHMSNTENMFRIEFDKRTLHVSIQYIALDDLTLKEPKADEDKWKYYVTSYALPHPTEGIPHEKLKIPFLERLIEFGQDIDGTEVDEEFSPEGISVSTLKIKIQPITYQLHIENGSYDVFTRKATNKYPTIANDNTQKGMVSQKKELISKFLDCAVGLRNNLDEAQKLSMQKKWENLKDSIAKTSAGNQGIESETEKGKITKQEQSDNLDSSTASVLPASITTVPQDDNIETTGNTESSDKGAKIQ
UniProt Q12432: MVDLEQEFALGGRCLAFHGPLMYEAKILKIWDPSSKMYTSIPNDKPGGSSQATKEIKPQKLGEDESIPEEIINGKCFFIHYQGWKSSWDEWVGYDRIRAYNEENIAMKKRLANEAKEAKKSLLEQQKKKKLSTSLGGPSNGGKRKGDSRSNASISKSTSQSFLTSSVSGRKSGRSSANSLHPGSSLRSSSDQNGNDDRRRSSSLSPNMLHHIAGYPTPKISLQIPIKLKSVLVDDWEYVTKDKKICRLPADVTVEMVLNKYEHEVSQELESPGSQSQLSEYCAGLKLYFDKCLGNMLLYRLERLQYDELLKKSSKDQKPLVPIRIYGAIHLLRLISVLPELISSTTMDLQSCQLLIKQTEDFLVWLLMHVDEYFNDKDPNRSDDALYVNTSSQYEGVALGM

No constants are given. Whether binding was seen depends on the method and setting. Some entries that bind do so weakly or less than the wild type.

The target in assay [1] is T1, Rco1 (S. cerevisiae) (UniProt Q04779).
T1 sequence: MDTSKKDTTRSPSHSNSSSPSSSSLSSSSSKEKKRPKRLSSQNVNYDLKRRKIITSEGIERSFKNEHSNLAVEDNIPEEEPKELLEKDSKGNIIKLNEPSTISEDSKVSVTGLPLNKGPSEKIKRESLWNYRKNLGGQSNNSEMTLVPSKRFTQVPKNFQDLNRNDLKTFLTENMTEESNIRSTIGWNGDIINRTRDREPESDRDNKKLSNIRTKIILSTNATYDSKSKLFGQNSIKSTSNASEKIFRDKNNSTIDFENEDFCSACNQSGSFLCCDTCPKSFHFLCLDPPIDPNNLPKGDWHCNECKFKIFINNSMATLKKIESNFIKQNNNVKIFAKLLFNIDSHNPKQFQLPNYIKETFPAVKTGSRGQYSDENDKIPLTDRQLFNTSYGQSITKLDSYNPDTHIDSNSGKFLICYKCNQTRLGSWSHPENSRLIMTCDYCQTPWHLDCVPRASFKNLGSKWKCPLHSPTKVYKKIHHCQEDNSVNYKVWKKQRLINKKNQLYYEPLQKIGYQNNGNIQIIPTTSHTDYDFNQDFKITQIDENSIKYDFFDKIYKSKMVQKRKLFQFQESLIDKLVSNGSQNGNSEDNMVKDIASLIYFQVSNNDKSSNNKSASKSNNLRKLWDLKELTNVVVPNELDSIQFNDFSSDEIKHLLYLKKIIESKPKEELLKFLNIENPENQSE
Description: cryo-EM structure; free Rpd3S complex, subunits co-expressed in Sf9 and purified together; stabilised by GraFix (glycerol gradient with 0.15% glutaraldehyde); 3.2 Å overall, local maps 2.7 Å and 3.2 Å; both purified.

Assay [2] deals with T2, Rpd3 (S. cerevisiae) (UniProt P32561).
T2 sequence: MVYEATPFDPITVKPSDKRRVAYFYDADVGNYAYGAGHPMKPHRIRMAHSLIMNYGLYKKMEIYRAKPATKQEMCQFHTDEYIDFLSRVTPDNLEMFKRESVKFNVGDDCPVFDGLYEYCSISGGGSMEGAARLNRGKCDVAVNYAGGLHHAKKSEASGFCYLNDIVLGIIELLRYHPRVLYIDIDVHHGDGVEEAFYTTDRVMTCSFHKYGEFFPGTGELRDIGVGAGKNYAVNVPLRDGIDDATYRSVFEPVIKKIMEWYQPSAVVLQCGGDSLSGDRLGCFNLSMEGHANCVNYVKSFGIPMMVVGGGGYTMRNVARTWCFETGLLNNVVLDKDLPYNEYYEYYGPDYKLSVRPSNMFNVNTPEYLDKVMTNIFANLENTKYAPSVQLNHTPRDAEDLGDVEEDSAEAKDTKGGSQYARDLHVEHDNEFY
Described as above.

In assay [3] the target is T1, Rco1 (S. cerevisiae). Description: SEC; subunits co-expressed in Sf9; complex captured from the lysate on strep beads by Strep-Rco1, anion exchange, Superose 6; peak fractions on SDS-PAGE with Coomassie staining.
In assay [4] the target is Sin3 (S. cerevisiae) (UniProt P22579). Description: cryo-EM structure; free Rpd3S complex, subunits co-expressed in Sf9 and purified together; stabilised by GraFix (glycerol gradient with 0.15% glutaraldehyde); 3.2 Å overall, local maps 2.7 Å and 3.2 Å; both purified.

For the molecule Eaf3 (from UniProt Q12432 1-401), the binding result in assay [1] and in assay [2] was “binds” each time.

B1: Ume1 (protein, UniProt Q03010 1-460)
chain: MSTLDIAEDNKIKNEEFKIWKKSIPSLYQHISSLKPIFGSGVDESPSTLRSIVFTNDSSCNKSKGVLSVPLLYSQGSEIFEVDCIVPLGLHYKKPESISEPLVQPDYTMESQKVEQTVLIPKWEFKGETIAKMIYVDNSEINVKVIALSTNGSLAWFREGVKSPVYTMMEPSTSLSSASSGNQNKPCVDFAISNDSKTLTVTKEKHLDNENATIKLIDNSGKIGEVLRTIPVPGIKNIQEIKFLNNQIFATCSDDGIIRFWGNEIGKKPLWILNDSLDGKTTCFAASPFVDTLFMTGTSGGALKVWDIRAVIALGDADAELNINQGHNKVNELFKVHHFYSEQVSKIEFSSISPMEVVTIGGLGNVYHWNFEPVFAIYNEIHEDFQGIISDELEAESMAFYHTEGCRREIGENNKVNTVAYHKYIEDLVATVDSDGLLTVYKPFTGKVLDGSREVGAAKS
Turning to B1, in assay [3], the binding entry was “binds”.

B2: Rco1 (natural protein, S. cerevisiae, UniProt Q04779 1-684, looked up)
chain: T1 sequence
notes: Rco1, S. cerevisiae, full length; residues 107-565 (Rco1-A) and 262-358 (Rco1-B) are modelled in the structure; The complex was captured on strep beads by the Strep-tag of Rco1; the tag was then cleaved with TEV protease before anion exchange and SEC; Two copies (Rco1-A, Rco1-B) stand in the Rpd3S complex; also called Rco1-A; Rco1-B; not shown: Strep-tag, N-terminal, cleaved
As to B2, the binding result in assay [4] and in assay [2] was “binds” throughout.
